Test results as given in PubChem BioAssay AID1487 (National Center for Advancing Translational Sciences (NCATS), 2009).
The list shows a part of the results. The main result of the screen is listed elsewhere. These columns were measured beside it and carry no call. The list favours compounds with an active or inconclusive main result. Words in brackets tell the shape of the fitted curve; partial curves, single points and poor fits give uncertain potencies.

Test: qHTS Assay for Modulators of Lamin A Splicing
Details: HeLa LMNA splicing GFP/RFP minigene ratio, 48 h
Procedure, shortened: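 Read-out is the ratio of GFP to DsRed2 object intensity, acquired by 488 nm laser-scanning cytometry on HeLa lamin A-EGFP minigene reporter cells. Compound incubation 48 hrs at 37 °C in Opti-MEM with 2% FBS; DMSO 0.5% final.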

[1] = measured here: RFP viability control channel
[2] = measured here: GFP splicing reporter channel

SMILES | AC50 [1] | AC50 [2]
Cc1cc(C)cc(OCC(=O)NN2C(=O)c3ccccc3C2=O)c1 | 0.0794 µM [falling, full curve, poor fit] | –
CCOC(=O)/C(=C\c1ccccc1)C(=O)c1cc(C(C)=O)c(Nc2ccccc2)s1 | 17.8 µM [falling, single point] | 5.62 µM [falling, single point]
CCc1cc(-c2nc(N)ncc2-c2csc(C)n2)c(O)cc1OC | 31.6 µM [falling, single point] | –
O=C(CSc1nnc2ccccn12)NCCc1ccc(Cl)cc1 | 3.98 µM [rising, partial curve, poor fit] | 35.5 µM [rising, single point]
CCOc1ccc(/C=N/NC(=O)CC(=O)NCc2ccccc2)cc1 | 20 µM [falling, partial curve, poor fit] | 0.398 µM [falling, full curve, poor fit]
Oc1ccc(/C=N/Nc2cccc3cccnc23)c(O)c1 | 14.1 µM [rising, partial curve] | 35.5 µM [rising, single point]
c1csc(CNc2ncnc3ccc(-c4ccoc4)cc23)c1 | 7.08 µM [falling, partial curve, poor fit] | 11.2 µM [falling, partial curve, poor fit]
Cc1ccccc1-n1c(-c2ccc(=O)[nH]n2)n[nH]c1=S | 0.631 µM [falling, full curve] | –
CN(C(=O)COc1ccccc1)c1nnc(C23CC4CC(CC(C4)C2)C3)s1 | 8.91 µM [falling, full curve] | –
C(=N\N(Cc1ccccc1)c1ccccc1)/c1ccco1 | 0.0178 µM [falling, full curve, poor fit] | –
Cc1cc(NC(=O)c2cccc(S(=O)(=O)N3CCOCC3)c2)c2ccccc2n1 | 17.8 µM [rising, partial curve] | –
Cc1nc(N2CCCC2)ncc1C(=O)Nc1ccc(OC(F)(F)F)cc1 | – | 0.891 µM [rising, full curve, poor fit]
CCOC(=O)c1cc(-c2ccc(F)cc2)n(CCC(=O)Nc2nc3cc(C)c(C)cc3s2)c1C | 20 µM [falling, single point] | –
OCCN1CCN(c2ncnc3c2cnn3-c2cccc(Cl)c2)CC1 | 0.1 µM [falling, full curve, poor fit] | –
C=CCn1c(N)c(C(=O)NCC2CCCO2)c2nc3ccccc3nc21 (stereo not given) | 35.5 µM [rising, single point] | –
COc1ccc(Cn2ccn(CC(=O)Nc3cc(C)ccc3C)c(=O)c2=O)cc1 | 0.0141 µM [rising, full curve] | –
COc1cc(C2=NOC(C(=O)NCc3ccco3)C2)cc(OC)c1OC (stereo not given) | 7.94 µM [falling, partial curve, poor fit] | 10 µM [falling, partial curve]
CC(C)(C)C(=O)[C@@H]1[C@@H]2C(=O)N(Cc3ccccc3)C(=O)[C@@H]2[C@H]2c3ccccc3C=CN12 | – | 11.2 µM [rising, partial curve]
CN1CCN(S(=O)(=O)c2ccc(NC(=S)NC(=O)c3ccc(Cl)cc3)cc2)CC1 | 35.5 µM [rising, single point] | 31.6 µM [rising, single point]
O=Nc1c(O)n(Cc2ccc(Cl)cc2Cl)c2ccccc12 | 0.398 µM [falling, partial curve] | 0.562 µM [falling, partial curve]
CC1=C(C#N)C2C(/C1=N/O)C2(C)C (stereo not given) | 14.1 µM [rising, single point] | –
CC(=O)N(Cc1ccc(F)cc1)Cc1nc2ccccc2c(=O)[nH]1 | 11.2 µM [falling, partial curve] | –
Cc1cc(C)c2cc(CN(CCO)C(c3nnnn3Cc3ccc(F)cc3)C(C)C)c(=O)[nH]c2c1 (stereo not given) | 35.5 µM [rising, single point] | –
CCCCNC(=S)Nc1ccc([N+](=O)[O-])cc1 | 12.6 µM [rising, partial curve] | 7.08 µM [rising, partial curve]
CCCOc1ccc(C2C(=O)N(C3CCCCCC3)CC(=O)N2C(C)C)cc1OC (stereo not given) | 8.91 µM [rising, partial curve] | –
O=C(Nc1nc2cc3c(cc2s1)OCCO3)c1cccc(S(=O)(=O)N2CCOCC2)c1 | 17.8 µM [rising, single point] | –
CCn1c2ccccc2c2cc(NC(=O)COC(=O)c3cc(S(N)(=O)=O)c(Cl)cc3Cl)ccc21 | 2.51 µM [falling, partial curve, poor fit] | –
COc1ccc(-c2cn3cccnc3n2)cc1NC(=O)c1ccccc1C(F)(F)F | – | 5.62 µM [rising, single point]

Structural class: the compounds so far containing a carbonyl joined to an NH by a bond outside any ring.
SMILES | AC50 [1] | AC50 [2]
Cc1cc(C)cc(OCC(=O)NN2C(=O)c3ccccc3C2=O)c1 | 0.0794 µM [falling, full curve, poor fit] | –
O=C(CSc1nnc2ccccn12)NCCc1ccc(Cl)cc1 | 3.98 µM [rising, partial curve, poor fit] | 35.5 µM [rising, single point]
CCOc1ccc(/C=N/NC(=O)CC(=O)NCc2ccccc2)cc1 | 20 µM [falling, partial curve, poor fit] | 0.398 µM [falling, full curve, poor fit]
Cc1cc(NC(=O)c2cccc(S(=O)(=O)N3CCOCC3)c2)c2ccccc2n1 | 17.8 µM [rising, partial curve] | –
Cc1nc(N2CCCC2)ncc1C(=O)Nc1ccc(OC(F)(F)F)cc1 | – | 0.891 µM [rising, full curve, poor fit]
CCOC(=O)c1cc(-c2ccc(F)cc2)n(CCC(=O)Nc2nc3cc(C)c(C)cc3s2)c1C | 20 µM [falling, single point] | –
C=CCn1c(N)c(C(=O)NCC2CCCO2)c2nc3ccccc3nc21 (stereo not given) | 35.5 µM [rising, single point] | –
COc1ccc(Cn2ccn(CC(=O)Nc3cc(C)ccc3C)c(=O)c2=O)cc1 | 0.0141 µM [rising, full curve] | –
COc1cc(C2=NOC(C(=O)NCc3ccco3)C2)cc(OC)c1OC (stereo not given) | 7.94 µM [falling, partial curve, poor fit] | 10 µM [falling, partial curve]
CN1CCN(S(=O)(=O)c2ccc(NC(=S)NC(=O)c3ccc(Cl)cc3)cc2)CC1 | 35.5 µM [rising, single point] | 31.6 µM [rising, single point]
O=C(Nc1nc2cc3c(cc2s1)OCCO3)c1cccc(S(=O)(=O)N2CCOCC2)c1 | 17.8 µM [rising, single point] | –
CCn1c2ccccc2c2cc(NC(=O)COC(=O)c3cc(S(N)(=O)=O)c(Cl)cc3Cl)ccc21 | 2.51 µM [falling, partial curve, poor fit] | –
COc1ccc(-c2cn3cccnc3n2)cc1NC(=O)c1ccccc1C(F)(F)F | – | 5.62 µM [rising, single point]

(next part)

SMILES | AC50 [1] | AC50 [2]
O=C(NC(=S)Nc1ccccc1N1CCCCC1)c1ccco1 | 22.4 µM [rising, partial curve, poor fit] | –
COc1cc(S(=O)(=O)NC2CCCCC2C)ccc1-n1cnnn1 (stereo not given) | 35.5 µM [falling, partial curve, poor fit] | –
CC(C)OCCCNC(=O)CN1C(=O)/C(=C/c2ccccc2)Sc2ccccc21 | 17.8 µM [rising, single point] | –
CCOC(=O)c1cccc(-n2c(C)cc(C=O)c2C)c1 | 11.2 µM [rising, single point] | 8.91 µM [rising, partial curve, poor fit]
CCCCNC(=O)c1onc(CSc2cc(C)ccc2C)c1C(=O)O | 20 µM [rising, single point] | 17.8 µM [rising, single point]
CCOc1ccc(NC(=O)CN(c2ccc(OC)cc2)S(C)(=O)=O)cc1 | 11.2 µM [rising, single point] | –
COc1cc(NC(=O)CCS(=O)(=O)c2ccc(Br)cc2)cc(OC)c1 | 0.891 µM [falling, full curve, poor fit] | –
Cc1ccc(CNC(=O)c2ccc3c(c2)NC(=O)C(CS(=O)(=O)Cc2cccc(C)c2)N3)cc1 (stereo not given) | 35.5 µM [falling, single point] | 35.5 µM [falling, single point]
Nc1ncnc2c1ncn2[C@@H]1O[C@@H](CO)[C@H](O)[C@H]1O | – | 0.794 µM [falling, full curve, poor fit]
CC(=O)Nc1cccc(-c2csc(Nc3cc(C)ccn3)n2)c1 | 35.5 µM [falling, single point] | 20 µM [falling, single point]
Cc1cc(Nc2cccc(F)c2)nc(-c2ccccc2O)n1 | 14.1 µM [rising, single point] | –
Cc1ccc(C)c(OCC(=O)Nc2nonc2NC(=O)COc2cc(C)ccc2C)c1 | – | 20 µM [rising, single point]
Cc1ccc(-c2nc(-c3cccnc3)sc2CC(=O)Nc2ccc3nc(C)sc3c2)cc1 | 0.0794 µM [rising, partial curve] | –
CCCCCN1CC(O)=C(c2nc3ccccc3[nH]2)C1=N | – | 0.0398 µM [rising, full curve, poor fit]
CCOC(=O)c1c(NC(=O)CSc2nncs2)sc(C)c1-c1ccccc1 | 15.8 µM [rising, partial curve] | 17.8 µM [rising, partial curve, poor fit]
CCN(CC)CC(O)COCCC12CC3CC(CC(C3)C1)C2 (stereo not given) | 20 µM [rising, single point] | 17.8 µM [rising, single point]
O=C(c1ccc2ccccc2c1)C1CCCN(S(=O)(=O)c2cccnc2)C1 (stereo not given) | 17.8 µM [falling, partial curve] | 14.1 µM [falling, partial curve]
COc1cc2c3nnc(-c4ccc(F)cc4)c-3cn(Cc3cccc(F)c3)c2cc1OC | 0.0708 µM [falling, single point] | –
CN(C)c1cccc(C(=O)NNC(=S)NC2CC3CCC2C3)c1 (stereo not given) | – | 7.94 µM [falling, partial curve, poor fit]
CCn1c(=O)cc(OCC(=O)Nc2ccc(C)cn2)c2ccccc21 | 28.2 µM [falling, partial curve] | –
O=C(Cc1ccc(Nc2nc3ccc(Br)cc3[nH]2)cc1)NCCc1cccs1 | 12.6 µM [rising, single point] | –
Cc1cc(C(=O)COC(=O)Cc2n[nH]c(=O)c3ccccc23)c(C)n1-c1ccc2c(c1)OCO2 | 28.2 µM [rising, single point] | 20 µM [rising, single point]
Cn1c(CO)c(-c2ccccc2)c2cc([N+](=O)[O-])ccc21 | 5.01 µM [rising, partial curve, poor fit] | –
COc1ccc(CN2CCN(C(=O)c3ccco3)CC2)cc1OCc1ccccc1 | 35.5 µM [rising, single point] | 35.5 µM [rising, single point]
CN(C)Cc1ccccc1C1(O)c2ccccc2CSc2ccccc21 (stereo not given) | 15.8 µM [rising, single point] | 35.5 µM [rising, single point]
COc1ccc(-c2csc(=Nc3ccccc3)n2CCO)cc1 | 15.8 µM [rising, partial curve] | 0.0398 µM [rising, full curve]
COC(=O)C1=C(C)N(CCc2cc(OC)c(OC)c(OC)c2)C(=O)N[C@H]1c1cccs1 | 20 µM [rising, single point] | –

A draw from above in order of SMILES length, high to low:
SMILES | AC50 [1] | AC50 [2]
Cc1ccc(C)c(OCC(=O)Nc2nonc2NC(=O)COc2cc(C)ccc2C)c1 | – | 20 µM [rising, single point]
CCn1c(=O)cc(OCC(=O)Nc2ccc(C)cn2)c2ccccc21 | 28.2 µM [falling, partial curve] | –
COc1cc(S(=O)(=O)NC2CCCCC2C)ccc1-n1cnnn1 (stereo not given) | 35.5 µM [falling, partial curve, poor fit] | –
